Test results: the supplement of paper PMC12595434, “Development of retinoid nuclear receptor pathway antagonists through targeting aldehyde dehydrogenase 1A3” (iScience, 2025)
The other results are listed elsewhere or left out. This is a noisy data set.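 Many melting curves are irregular; where none melted, Tm was taken as 64 °C.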

By UniProt entry, the sequences of proteins in these tests, tags left out. Where a name states a change or a piece, a line headed by the entry shows the natural chain unless it says otherwise.
UniProt O95302: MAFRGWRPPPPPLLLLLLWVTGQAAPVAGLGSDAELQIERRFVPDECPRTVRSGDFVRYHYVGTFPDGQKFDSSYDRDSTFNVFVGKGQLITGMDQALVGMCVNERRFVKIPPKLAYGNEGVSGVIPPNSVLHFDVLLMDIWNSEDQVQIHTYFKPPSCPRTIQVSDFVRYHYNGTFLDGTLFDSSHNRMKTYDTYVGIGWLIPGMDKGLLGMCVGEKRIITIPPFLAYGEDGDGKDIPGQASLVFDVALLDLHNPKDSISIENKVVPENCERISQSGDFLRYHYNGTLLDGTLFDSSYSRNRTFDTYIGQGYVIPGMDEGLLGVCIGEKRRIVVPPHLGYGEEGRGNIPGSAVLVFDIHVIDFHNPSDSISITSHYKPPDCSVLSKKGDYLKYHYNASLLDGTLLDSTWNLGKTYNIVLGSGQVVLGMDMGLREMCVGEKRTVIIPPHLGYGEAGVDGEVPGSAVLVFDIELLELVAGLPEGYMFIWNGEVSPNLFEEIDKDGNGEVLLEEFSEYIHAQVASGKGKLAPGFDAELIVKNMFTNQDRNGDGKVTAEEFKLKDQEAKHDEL
UniProt O95081: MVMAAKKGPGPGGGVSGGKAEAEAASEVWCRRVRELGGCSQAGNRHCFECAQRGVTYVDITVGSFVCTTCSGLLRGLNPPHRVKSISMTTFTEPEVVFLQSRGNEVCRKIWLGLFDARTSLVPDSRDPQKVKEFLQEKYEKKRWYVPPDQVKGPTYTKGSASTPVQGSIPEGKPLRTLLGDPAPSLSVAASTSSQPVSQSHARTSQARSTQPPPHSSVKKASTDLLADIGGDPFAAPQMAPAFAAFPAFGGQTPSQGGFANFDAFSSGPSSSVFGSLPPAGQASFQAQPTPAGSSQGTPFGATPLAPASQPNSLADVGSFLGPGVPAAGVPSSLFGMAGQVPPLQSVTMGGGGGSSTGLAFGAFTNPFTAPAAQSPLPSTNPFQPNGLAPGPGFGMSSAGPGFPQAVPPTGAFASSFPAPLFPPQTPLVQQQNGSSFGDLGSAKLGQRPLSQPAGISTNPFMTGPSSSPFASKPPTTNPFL
UniProt O95166, whole entry: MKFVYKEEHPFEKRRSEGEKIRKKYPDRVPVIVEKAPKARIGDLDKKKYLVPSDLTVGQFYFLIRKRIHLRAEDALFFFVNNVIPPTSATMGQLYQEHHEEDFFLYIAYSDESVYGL
UniProt O95816: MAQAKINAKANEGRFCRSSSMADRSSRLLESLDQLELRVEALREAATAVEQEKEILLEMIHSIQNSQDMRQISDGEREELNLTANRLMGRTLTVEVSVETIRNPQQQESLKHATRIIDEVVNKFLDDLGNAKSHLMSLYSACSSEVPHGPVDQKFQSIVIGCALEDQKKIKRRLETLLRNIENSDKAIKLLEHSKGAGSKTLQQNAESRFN
UniProt O95777: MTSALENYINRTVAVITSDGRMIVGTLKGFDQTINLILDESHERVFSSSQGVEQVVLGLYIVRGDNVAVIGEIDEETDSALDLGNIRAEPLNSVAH
UniProt O94880: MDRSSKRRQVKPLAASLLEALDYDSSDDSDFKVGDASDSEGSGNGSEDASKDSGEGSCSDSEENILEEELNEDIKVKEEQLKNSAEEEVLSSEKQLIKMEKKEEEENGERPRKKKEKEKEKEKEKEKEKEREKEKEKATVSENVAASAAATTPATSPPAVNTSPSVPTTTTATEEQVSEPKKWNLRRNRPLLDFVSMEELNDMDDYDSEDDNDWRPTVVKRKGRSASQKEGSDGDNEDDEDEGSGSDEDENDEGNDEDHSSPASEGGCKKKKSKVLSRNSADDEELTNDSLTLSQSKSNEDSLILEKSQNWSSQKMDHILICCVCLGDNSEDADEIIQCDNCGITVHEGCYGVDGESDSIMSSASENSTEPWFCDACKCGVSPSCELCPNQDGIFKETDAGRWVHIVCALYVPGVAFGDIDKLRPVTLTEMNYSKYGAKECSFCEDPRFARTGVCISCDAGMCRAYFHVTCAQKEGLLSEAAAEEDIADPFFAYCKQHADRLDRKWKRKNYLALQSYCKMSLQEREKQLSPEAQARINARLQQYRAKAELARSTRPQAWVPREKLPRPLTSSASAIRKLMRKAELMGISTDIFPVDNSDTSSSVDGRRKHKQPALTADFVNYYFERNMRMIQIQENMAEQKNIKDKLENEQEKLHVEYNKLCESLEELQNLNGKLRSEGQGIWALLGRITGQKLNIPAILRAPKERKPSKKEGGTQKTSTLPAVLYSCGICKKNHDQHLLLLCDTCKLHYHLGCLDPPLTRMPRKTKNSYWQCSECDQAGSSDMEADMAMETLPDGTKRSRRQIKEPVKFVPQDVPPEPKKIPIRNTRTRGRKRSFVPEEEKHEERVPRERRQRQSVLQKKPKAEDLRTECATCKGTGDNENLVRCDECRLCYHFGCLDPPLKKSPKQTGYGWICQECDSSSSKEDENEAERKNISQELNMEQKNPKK
UniProt P04921: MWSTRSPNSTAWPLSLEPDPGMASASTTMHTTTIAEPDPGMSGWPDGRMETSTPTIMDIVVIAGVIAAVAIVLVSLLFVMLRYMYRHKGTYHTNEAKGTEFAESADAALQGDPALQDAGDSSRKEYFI
UniProt O95684: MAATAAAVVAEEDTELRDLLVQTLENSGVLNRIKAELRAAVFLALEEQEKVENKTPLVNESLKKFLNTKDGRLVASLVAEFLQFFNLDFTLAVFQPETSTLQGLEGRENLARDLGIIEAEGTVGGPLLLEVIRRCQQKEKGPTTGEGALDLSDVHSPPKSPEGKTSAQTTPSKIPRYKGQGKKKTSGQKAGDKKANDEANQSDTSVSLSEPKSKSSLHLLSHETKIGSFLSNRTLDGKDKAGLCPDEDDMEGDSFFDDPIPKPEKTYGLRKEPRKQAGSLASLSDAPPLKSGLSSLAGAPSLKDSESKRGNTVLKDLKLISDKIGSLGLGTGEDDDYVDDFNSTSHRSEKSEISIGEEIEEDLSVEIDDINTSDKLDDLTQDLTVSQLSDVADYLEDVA
UniProt O94964: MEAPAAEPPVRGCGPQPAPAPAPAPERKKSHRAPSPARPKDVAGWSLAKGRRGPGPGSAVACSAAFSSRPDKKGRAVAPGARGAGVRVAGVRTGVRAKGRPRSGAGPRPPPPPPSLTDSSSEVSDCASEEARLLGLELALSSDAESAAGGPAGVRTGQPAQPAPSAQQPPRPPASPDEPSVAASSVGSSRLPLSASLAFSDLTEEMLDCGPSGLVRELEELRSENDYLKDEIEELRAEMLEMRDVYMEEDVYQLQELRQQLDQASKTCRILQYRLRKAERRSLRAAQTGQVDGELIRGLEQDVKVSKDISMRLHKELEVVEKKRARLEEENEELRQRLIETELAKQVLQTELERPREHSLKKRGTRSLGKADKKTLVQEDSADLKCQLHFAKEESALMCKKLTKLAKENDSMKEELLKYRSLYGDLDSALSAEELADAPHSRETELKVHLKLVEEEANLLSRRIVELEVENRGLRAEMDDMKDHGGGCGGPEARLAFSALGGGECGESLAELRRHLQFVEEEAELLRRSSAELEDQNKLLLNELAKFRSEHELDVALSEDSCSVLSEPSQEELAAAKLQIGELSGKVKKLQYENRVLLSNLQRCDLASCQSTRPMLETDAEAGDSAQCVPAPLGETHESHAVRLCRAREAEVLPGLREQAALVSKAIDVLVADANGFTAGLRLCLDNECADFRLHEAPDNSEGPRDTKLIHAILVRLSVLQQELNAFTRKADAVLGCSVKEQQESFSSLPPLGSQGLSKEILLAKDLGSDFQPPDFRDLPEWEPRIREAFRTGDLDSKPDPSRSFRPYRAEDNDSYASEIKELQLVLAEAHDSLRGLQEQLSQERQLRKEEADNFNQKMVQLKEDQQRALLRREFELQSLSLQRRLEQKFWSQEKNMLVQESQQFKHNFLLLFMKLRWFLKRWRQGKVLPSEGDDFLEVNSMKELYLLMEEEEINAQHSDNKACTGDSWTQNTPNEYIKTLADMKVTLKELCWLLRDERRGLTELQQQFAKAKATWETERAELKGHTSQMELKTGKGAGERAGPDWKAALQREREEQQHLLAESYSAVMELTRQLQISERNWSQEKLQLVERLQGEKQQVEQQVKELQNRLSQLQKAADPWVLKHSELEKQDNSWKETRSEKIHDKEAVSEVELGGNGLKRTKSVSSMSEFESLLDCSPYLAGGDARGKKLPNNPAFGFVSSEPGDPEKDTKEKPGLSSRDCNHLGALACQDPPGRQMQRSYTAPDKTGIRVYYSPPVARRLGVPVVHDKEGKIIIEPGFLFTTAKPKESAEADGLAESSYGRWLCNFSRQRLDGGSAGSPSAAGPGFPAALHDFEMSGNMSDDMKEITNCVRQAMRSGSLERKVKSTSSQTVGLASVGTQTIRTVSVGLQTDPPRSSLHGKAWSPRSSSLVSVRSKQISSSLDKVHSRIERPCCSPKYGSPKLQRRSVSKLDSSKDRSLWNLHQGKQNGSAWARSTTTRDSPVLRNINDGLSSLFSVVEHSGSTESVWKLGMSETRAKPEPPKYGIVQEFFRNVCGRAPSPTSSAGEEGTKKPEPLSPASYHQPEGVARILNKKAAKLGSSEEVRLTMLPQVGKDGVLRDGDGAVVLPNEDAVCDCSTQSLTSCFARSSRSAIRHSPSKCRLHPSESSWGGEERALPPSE
UniProt O94842: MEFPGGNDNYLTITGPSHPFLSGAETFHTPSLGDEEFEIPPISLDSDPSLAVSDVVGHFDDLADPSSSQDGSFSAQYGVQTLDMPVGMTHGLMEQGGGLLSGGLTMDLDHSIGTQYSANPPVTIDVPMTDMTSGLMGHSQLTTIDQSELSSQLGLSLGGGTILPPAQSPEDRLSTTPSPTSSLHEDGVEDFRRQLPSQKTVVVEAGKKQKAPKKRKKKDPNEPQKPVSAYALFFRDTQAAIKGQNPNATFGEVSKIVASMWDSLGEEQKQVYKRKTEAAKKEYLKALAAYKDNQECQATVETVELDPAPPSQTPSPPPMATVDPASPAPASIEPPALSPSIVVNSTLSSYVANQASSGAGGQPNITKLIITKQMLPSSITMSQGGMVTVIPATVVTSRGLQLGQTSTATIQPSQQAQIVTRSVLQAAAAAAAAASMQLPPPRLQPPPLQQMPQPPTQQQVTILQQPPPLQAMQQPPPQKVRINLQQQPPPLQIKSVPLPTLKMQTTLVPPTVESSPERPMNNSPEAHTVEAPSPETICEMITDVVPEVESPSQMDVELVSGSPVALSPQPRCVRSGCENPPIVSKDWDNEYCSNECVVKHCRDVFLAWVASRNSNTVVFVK
UniProt O75914, whole entry, looked up: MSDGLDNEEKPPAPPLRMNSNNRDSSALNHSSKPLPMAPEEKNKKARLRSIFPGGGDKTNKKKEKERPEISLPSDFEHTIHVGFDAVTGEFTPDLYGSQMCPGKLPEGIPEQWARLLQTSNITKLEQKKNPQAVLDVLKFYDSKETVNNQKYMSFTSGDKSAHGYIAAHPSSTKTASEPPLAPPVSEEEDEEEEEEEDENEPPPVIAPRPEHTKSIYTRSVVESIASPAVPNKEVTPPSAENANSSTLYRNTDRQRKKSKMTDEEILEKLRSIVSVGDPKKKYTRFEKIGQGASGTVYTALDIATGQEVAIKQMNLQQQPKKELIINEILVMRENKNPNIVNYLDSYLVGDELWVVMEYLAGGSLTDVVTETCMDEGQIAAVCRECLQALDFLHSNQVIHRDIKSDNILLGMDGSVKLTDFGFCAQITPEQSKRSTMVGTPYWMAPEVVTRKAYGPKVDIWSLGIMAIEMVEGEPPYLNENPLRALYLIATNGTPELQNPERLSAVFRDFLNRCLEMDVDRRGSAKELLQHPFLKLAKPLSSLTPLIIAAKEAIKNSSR
UniProt O75928, whole entry: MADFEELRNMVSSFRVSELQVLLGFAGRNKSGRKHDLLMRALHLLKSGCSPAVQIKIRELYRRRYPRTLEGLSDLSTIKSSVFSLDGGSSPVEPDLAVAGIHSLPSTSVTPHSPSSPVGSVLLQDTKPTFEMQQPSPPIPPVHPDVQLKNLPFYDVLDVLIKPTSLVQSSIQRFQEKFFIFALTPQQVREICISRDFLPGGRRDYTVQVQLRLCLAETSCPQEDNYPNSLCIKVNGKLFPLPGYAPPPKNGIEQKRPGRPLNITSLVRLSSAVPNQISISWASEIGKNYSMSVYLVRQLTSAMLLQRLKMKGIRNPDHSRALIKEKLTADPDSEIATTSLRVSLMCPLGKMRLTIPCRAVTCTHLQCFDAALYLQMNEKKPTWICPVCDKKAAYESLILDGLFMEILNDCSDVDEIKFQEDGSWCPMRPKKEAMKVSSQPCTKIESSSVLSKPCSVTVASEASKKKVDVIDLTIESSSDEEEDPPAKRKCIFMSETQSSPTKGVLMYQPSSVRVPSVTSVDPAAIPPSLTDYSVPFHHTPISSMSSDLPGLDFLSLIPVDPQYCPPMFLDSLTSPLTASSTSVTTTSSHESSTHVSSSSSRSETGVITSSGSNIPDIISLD
UniProt P00374: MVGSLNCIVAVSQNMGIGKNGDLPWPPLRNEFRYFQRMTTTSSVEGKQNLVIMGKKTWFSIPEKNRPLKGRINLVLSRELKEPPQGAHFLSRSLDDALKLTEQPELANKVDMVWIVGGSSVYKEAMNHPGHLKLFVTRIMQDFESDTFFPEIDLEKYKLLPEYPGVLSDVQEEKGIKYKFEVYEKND

Compound: CCc1cnccc1C(=O)Nc1cc2c(cc1F)NC(=O)CC2
Test: melting temperature shift (DMSO Tm minus MBE1-treated Tm) in cellular thermal proteome profiling; higher = less thermal stabilization by MBE1 (negative = stabilized by MBE1)
Conditions: A375

| Target | melting temperature shift (MBE1 concentration: 100 nM) [°C] | melting temperature shift (MBE1 concentration: 1 uM) [°C] |
| --- | --- | --- |
| TXNDC12 (UniProt O95881) | -0.208 | -2.28 |
| STAM2 (UniProt O75886) | 0.281 | 0.0488 |
| PPP1R3D (UniProt O95685) | 1.37 | -0.598 |
| SLU7 (UniProt O95391) | 0.0542 | -0.801 |
| ATG7 (UniProt O95352) | 1.07 | 0.69 |
| FKBP9 (UniProt O95302) | -0.59 | 0.543 |
| CRYZL1 (UniProt O95825) | 0.406 | -0.52 |
| UniProt O94901 | -0.0047 | -1.93 |
| ECD (UniProt O95905) | 0.69 | 0.0977 |
| STAU1 (UniProt O95793) | -0.57 | 0.0122 |
| KIF20A (UniProt O95235) | -0.397 | -0.205 |
| AHSA1 (UniProt O95433) | 0.69 | -0.128 |
| PTBP3 (UniProt O95758) | -0.259 | -0.861 |
| USP1 (UniProt O94782) | 0.174 | -0.577 |
| AP2A2 (UniProt O94973) | -0.391 | 0.525 |
| STAMBP (UniProt O95630) | -0.579 | -0.386 |
| EGFR (UniProt P00533) | -0.577 | 0.404 |
| CLPX (UniProt O76031) | 0.551 | 0.36 |
| GNAI2 (UniProt P04899) | -0.738 | 0.201 |
| ATP1B1 (UniProt P05026) | -0.747 | -1.7 |

| Target | melting temperature shift (MBE1 concentration: 100 nM) [°C] | melting temperature shift (MBE1 concentration: 1 uM) [°C] |
| --- | --- | --- |
| BAG4 (UniProt O95429) | -0.698 | 0.463 |
| UFL1 (UniProt O94874) | 0.409 | 0.263 |
| AGFG2 (UniProt O95081) | -0.301 | 0.0705 |
| RPN2 (UniProt P04844) | -0.711 | 0.456 |
| MPDZ (UniProt O75970) | -1.48 | -0.136 |
| GABARAP (UniProt O95166) | -0.798 | -1.4 |
| ITGAV (UniProt P06756) | -4.97 | -3.3 |
| BAG2 (UniProt O95816) | 0.409 | 0 |
| LSM8 (UniProt O95777) | -6.18 | 1.82 |
| PHF14 (UniProt O94880) | 1.07 | 0.238 |
| DDHD2 (UniProt O94830) | -0.463 | 1.77 |
| UniProt P04921 | 3.56 | -4.8 |
| PRPF6 (UniProt O94906) | -0.0769 | -0.461 |
| UniProt P05091 | 0.376 | 0.57 |
| UniProt P00750 | -1.02 | -0.501 |
| CNOT4 (UniProt O95628) | -0.241 | -0.101 |
| FGFR1OP (UniProt O95684) | 1.48 | 0.91 |
| SOGA1 (UniProt O94964) | -0.768 | -0.641 |
| UniProt O76041 | 2.45 | -3.48 |
| FMNL1 (UniProt O95466) | 0.919 | 2.51 |

As entered above:
melting temperature shift (MBE1 concentration: 100 nM) [°C], FMNL1 (UniProt O95466) reads 0.919
melting temperature shift (MBE1 concentration: 100 nM) [°C], DDHD2 (UniProt O94830) reads -0.463

Additional entries:

| Target | melting temperature shift (MBE1 concentration: 100 nM) [°C] | melting temperature shift (MBE1 concentration: 1 uM) [°C] |
| --- | --- | --- |
| CEP152 (UniProt O94986) | -1.53 | 2.75 |
| NDUFB8 (UniProt O95169) | -1.25 | -1.79 |
| RAF1 (UniProt P04049) | -0.353 | 0.0941 |
| ARL6IP5 (UniProt O75915) | -0.858 | -0.495 |
| UniProt O95059 | -2.4 | -1.74 |
| TOX4 (UniProt O94842) | -0.684 | 0.11 |
| H6PD (UniProt O95479) | -1.52 | -1.33 |
| PAK3 (UniProt O75914) | -0.948 | -1.33 |
| UniProt O75928 | -1.49 | 0.00611 |
| ATE1 (UniProt O95260) | 0.495 | 0.305 |
| ICAM1 (UniProt P05362) | -0.2 | -2.42 |
| LATS1 (UniProt O95835) | -1.27 | 0.327 |
| TK1 (UniProt P04183) | -0.952 | 2.63 |
| ATP1A1 (UniProt P05023) | -0.971 | -0.525 |
| FLOT1 (UniProt O75955) | -0.922 | 1.31 |
| P30462 (UniProt P01889) | -2.8 | -3.28 |
| VAPB (UniProt O95292) | -0.382 | -0.784 |
| DHFR (UniProt P00374) | -0.147 | -0.237 |
| DCTN3 (UniProt O75935) | -0.0122 | 0.299 |
| UniProt P00167 | -1.25 | -0.348 |
